No constants are given. Whether binding was seen depends on the method and setting. Binding seen in cells or lysates may run through a third protein. Here binding means that the protein was enriched with, or labelled near, the bait; the list need not be complete.

Amino acid sequences for entries named in this document (tags omitted). A change or cut given only in a name is not applied to a line headed by its entry.
UniProt Q38C87: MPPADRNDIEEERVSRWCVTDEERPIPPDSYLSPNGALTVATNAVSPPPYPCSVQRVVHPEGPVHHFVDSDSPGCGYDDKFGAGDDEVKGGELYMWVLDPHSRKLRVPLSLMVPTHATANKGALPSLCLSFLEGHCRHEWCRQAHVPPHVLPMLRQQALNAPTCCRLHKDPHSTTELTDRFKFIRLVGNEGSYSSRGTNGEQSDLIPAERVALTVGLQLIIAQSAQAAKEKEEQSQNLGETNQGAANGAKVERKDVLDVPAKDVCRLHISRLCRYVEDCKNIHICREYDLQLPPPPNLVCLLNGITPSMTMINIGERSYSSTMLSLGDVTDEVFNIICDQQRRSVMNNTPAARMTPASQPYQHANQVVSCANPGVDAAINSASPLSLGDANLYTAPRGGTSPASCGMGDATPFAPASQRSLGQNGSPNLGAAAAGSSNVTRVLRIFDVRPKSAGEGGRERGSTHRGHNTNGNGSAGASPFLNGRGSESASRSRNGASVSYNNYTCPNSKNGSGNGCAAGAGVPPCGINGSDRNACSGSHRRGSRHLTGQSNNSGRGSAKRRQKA
UniProt Q581A2: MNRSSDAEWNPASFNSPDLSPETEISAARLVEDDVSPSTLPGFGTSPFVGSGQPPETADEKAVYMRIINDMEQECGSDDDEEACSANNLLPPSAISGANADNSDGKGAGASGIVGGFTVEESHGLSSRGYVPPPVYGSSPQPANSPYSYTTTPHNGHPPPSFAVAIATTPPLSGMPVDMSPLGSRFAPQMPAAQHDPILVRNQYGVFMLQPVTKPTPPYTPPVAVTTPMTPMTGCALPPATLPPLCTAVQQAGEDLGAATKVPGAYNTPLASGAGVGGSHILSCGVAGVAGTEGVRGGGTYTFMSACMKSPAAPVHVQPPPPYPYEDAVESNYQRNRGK

The record followed here is paper PMC6181440.

The assay has as its target TAP-ZC3H30 (Trypanosoma brucei) (UniProt Q38C87). Kind of assay: affinity purification with mass spectrometry; tandem affinity purification of TAP-ZC3H30 from about 10^10 procyclic-form trypanosomes; three purifications with 200 ug/mL RNase A in lysis and wash buffers, three without; eluates analysed by tandem mass spectrometry.

As for “protein encoded by Tb927.8.3820 (from UniProt Q581A2)”, the binding result is recorded as “binds”.
